This test deals with Flag-tagged cortactin (UniProt Q14247). Briefly: co-IP; 293T cells co-transfected with Flag-cortactin and Myc-Fe65 or deletion constructs; cellular extracts (20 mM Tris-HCl pH 7.5, 150 mM NaCl, 1 mM EDTA, 1% NP-40) incubated with anti-Flag beads overnight at 4 °C; immunoblot. (In general: A western blot detects proteins with antibodies after separation by electrophoresis.)

By UniProt entry, the sequences of proteins in these tests, tags left out. Where a name states a change or a piece, a line headed by the entry shows the natural chain unless it says otherwise.
UniProt Q14247: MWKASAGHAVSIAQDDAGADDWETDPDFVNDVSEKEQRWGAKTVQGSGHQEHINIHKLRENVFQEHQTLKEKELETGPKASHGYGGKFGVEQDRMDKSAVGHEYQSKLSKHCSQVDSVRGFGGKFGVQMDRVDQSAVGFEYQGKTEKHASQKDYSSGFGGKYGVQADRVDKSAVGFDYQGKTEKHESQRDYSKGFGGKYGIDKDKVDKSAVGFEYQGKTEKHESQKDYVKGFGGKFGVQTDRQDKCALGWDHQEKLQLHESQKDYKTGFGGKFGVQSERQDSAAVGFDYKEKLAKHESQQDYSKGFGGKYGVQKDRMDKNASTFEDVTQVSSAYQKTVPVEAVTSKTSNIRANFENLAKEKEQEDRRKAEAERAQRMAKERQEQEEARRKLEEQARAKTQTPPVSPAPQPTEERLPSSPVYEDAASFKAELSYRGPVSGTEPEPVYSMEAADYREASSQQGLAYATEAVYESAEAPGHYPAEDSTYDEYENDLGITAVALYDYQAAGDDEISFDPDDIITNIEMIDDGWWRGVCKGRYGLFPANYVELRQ
UniProt O00213: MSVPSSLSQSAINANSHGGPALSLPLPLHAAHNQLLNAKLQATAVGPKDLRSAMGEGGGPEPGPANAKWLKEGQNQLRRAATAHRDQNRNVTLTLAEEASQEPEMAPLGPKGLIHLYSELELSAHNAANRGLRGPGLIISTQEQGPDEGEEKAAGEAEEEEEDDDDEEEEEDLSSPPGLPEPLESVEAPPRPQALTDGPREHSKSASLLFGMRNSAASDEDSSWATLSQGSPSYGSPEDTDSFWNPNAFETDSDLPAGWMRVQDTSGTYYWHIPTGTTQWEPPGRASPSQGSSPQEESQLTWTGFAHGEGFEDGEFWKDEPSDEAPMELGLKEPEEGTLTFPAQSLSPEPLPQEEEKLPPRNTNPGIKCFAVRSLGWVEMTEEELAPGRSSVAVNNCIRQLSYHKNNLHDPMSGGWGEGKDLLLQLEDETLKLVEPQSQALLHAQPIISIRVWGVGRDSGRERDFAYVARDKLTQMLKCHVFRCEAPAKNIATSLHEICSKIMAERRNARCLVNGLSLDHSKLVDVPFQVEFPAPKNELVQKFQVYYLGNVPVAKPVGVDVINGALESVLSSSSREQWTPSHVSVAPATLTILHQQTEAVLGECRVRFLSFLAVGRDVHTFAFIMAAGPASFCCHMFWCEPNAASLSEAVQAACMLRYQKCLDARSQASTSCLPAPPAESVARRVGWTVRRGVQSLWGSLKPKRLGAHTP

No constants are given. Whether binding was seen depends on the method and setting. Binding seen in cells or lysates may run through a third protein. A result given as binding can be weak or reduced; the word gives no strength.

As to “Myc-Fe65 mutant with the WW domain deleted (from UniProt O00213)”, the binding entry is given as “binds”.

Regarding “Myc-Fe65 mutant with the PTB1 domain deleted (from UniProt O00213)”, the binding result is recorded as “no binding”. “Myc-Fe65 mutant with the PTB2 domain deleted (from UniProt O00213)”: the binding result is given as “binds”.

For the origin of these results see paper PMC4499803.
